Measurements published in patent publication US20210102200A1, “SMALL MOLECULE TARGETED RECRUITMENT OF A NUCLEASE TO RNA” (The Scripps Research Institute, priority 2018, published 2021).
No constants are given. Whether binding was seen depends on the method and setting. Some entries that bind do so weakly or less than the wild type. Where a sequence is shown, tags or fusion partners need not be part of it.

Tests used:
Conditions in all cases: remark: other sources report otherwise
[1] = biological target: T1, RNase L-GST protein, Q05823; assay: in vitro self-oligomerization of RNase L induced by TGP-210-RL; dimethyl suberimidate cross-linking, SDS-PAGE, Western blot
T1 chain: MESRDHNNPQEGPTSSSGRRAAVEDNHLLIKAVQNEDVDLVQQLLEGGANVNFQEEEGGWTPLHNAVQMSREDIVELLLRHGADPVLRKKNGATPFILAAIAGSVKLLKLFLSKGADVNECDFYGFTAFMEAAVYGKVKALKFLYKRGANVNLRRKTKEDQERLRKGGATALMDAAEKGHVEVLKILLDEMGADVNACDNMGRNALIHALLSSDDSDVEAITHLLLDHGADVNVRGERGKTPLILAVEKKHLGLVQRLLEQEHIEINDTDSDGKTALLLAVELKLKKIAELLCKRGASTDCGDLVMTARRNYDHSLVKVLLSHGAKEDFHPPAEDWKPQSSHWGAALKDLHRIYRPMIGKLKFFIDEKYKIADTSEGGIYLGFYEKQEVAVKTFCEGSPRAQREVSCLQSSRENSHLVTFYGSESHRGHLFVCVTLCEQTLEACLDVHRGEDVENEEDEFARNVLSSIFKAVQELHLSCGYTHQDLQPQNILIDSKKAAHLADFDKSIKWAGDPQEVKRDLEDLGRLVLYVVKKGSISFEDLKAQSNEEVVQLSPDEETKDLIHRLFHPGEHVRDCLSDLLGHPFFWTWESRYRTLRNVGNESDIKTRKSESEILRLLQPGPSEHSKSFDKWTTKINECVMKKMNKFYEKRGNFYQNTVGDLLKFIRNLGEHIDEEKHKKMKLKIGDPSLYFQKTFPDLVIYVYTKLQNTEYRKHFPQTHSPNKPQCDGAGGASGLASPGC

[2] = biological target: T1, RNase L-GST protein, Q05823; assay: in vitro RNase L oligomerization: RNase L (3 µM aliquot) with 2'-5' A4, TGP-210 or TGP-210-RL, cross-linked with dimethyl suberimidate, then SDS-PAGE and anti-RNase L Western blot, bands quantified with ImageJ
[3] = biological target: T1, RNase L-GST protein, Q05823; assay: in vitro self-oligomerization of RNase L induced by 2'-5'A4 or compound 2; dimethyl suberimidate cross-linking, SDS-PAGE, Western blot
[4] = biological target: T1, RNase L-GST protein, Q05823; assay: in vitro RNase L oligomerization: RNase L (12 µM aliquot) with 2'-5'A4, 2 or 1b, cross-linked with dimethyl suberimidate, then SDS-PAGE and anti-RNase L Western blot, bands quantified with ImageJ

- binding [1]: binds
- binding [2]: binds
- binding [3]: binds
- binding [4]: binds
B1: RNase L-GST protein, Q05823 1-741 (enzyme, UniProt Q05823 1-741, looked up, not shown: a dimerising Fc or GST)
chain: T1 chain
